Experimental data taken from ChEMBL document CHEMBL5674883, “The Heterochromatin Landscape in Migrating Cells and the Importance of H3K27me3 for Associated Transcriptome Alterations” (Cells, 2018).
This continues a long series; more values of the same kind are listed elsewhere.

Protein sequences, listed by entry. Tags and fused reporters are not part of them.
UniProt Q61188, whole entry: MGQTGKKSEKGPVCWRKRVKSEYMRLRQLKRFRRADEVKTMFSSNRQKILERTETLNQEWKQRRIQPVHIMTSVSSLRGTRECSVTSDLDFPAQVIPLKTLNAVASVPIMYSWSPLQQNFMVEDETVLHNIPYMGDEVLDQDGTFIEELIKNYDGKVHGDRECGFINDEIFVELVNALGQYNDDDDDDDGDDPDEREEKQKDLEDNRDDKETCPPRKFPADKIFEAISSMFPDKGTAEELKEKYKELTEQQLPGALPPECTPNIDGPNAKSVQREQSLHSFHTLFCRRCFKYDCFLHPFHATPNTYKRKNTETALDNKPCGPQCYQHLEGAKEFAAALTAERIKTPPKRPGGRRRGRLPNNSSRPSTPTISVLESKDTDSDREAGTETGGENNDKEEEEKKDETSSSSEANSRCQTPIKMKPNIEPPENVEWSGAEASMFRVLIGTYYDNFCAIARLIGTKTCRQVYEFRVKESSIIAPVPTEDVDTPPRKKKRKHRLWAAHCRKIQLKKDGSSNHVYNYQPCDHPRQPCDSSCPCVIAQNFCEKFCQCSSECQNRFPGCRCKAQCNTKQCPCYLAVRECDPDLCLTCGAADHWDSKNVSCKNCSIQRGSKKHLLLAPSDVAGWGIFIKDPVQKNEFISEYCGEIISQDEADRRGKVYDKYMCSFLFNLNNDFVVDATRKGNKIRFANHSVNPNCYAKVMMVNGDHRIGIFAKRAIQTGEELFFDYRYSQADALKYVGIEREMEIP

Legend:
Format in all cases: cell-based
[1] = target: T1, RNA polymerase II (Mus musculus) (UniProt P08775+Q8CFI7+P97760+A0A3Q4L2S8+Q80UW8+P61219+P62488+Q923G2+P60898+O08740+Q63871+P62876); assay: Inhibition of RNA polymerase II in mouse B16-F1 migrating cells assessed as fold change in Ralgds-RNA stability at 0.1 mM measured by ChIP-seq analysis relative to control cells
[2] = target: T1, RNA polymerase II (Mus musculus); assay: Inhibition of RNA polymerase II in mouse B16-F1 migrating cells assessed as fold change in Dgcr6-RNA stability at 0.1 mM measured by ChIP-seq analysis relative to control cells
[3] = target: T1, RNA polymerase II (Mus musculus); assay: Inhibition of RNA polymerase II in mouse B16-F1 migrating cells assessed as fold change in Knl1-RNA stability at 0.1 mM measured by ChIP-seq analysis relative to control cells
[4] = target: T1, RNA polymerase II (Mus musculus); assay: Inhibition of RNA polymerase II in mouse B16-F1 migrating cells assessed as fold change in Top1-RNA stability at 0.1 mM measured by ChIP-seq analysis relative to control cells
[5] = target: T1, RNA polymerase II (Mus musculus); assay: Inhibition of RNA polymerase II in mouse B16-F1 migrating cells assessed as fold change in Ercc5-RNA stability at 0.1 mM measured by ChIP-seq analysis relative to control cells
[6] = target: T1, RNA polymerase II (Mus musculus); assay: Inhibition of RNA polymerase II in mouse B16-F1 migrating cells assessed as fold change in Grik2-RNA stability at 0.1 mM measured by ChIP-seq analysis relative to control cells
[7] = target: T1, RNA polymerase II (Mus musculus); assay: Inhibition of RNA polymerase II in mouse B16-F1 migrating cells assessed as fold change in Dap-RNA stability at 0.1 mM measured by ChIP-seq analysis relative to control cells
[8] = target: T1, RNA polymerase II (Mus musculus); assay: Inhibition of RNA polymerase II in mouse B16-F1 migrating cells assessed as fold change in Fos-RNA stability at 0.1 mM measured by ChIP-seq analysis relative to control cells
[9] = target: T1, RNA polymerase II (Mus musculus); assay: Inhibition of RNA polymerase II in mouse B16-F1 migrating cells assessed as fold change in Zhx1-RNA stability at 0.1 mM measured by ChIP-seq analysis relative to control cells
[10] = target: T1, RNA polymerase II (Mus musculus); assay: Inhibition of RNA polymerase II in mouse B16-F1 migrating cells assessed as fold change in Cetn3-RNA stability at 0.1 mM measured by ChIP-seq analysis relative to control cells
[11] = target: T1, RNA polymerase II (Mus musculus); assay: Inhibition of RNA polymerase II in mouse B16-F1 migrating cells assessed as fold change in Prkce-RNA stability at 0.1 mM measured by ChIP-seq analysis relative to control cells
[12] = target: T1, RNA polymerase II (Mus musculus); assay: Inhibition of RNA polymerase II in mouse B16-F1 migrating cells assessed as fold change in Csrnp2-RNA stability at 0.1 mM measured by ChIP-seq analysis relative to control cells
[13] = target: T1, RNA polymerase II (Mus musculus); assay: Inhibition of RNA polymerase II in mouse B16-F1 migrating cells assessed as fold change in Scfd1-RNA stability at 0.1 mM measured by ChIP-seq analysis relative to control cells
[14] = target: T1, RNA polymerase II (Mus musculus); assay: Inhibition of RNA polymerase II in mouse B16-F1 migrating cells assessed as fold change in Cyba-RNA stability at 0.1 mM measured by ChIP-seq analysis relative to control cells
[15] = target: T1, RNA polymerase II (Mus musculus); assay: Inhibition of RNA polymerase II in mouse B16-F1 migrating cells assessed as fold change in Hps6-RNA stability at 0.1 mM measured by ChIP-seq analysis relative to control cells
[16] = target: T1, RNA polymerase II (Mus musculus); assay: Inhibition of RNA polymerase II in mouse B16-F1 migrating cells assessed as fold change in Las1l-RNA stability at 0.1 mM measured by ChIP-seq analysis relative to control cells
[17] = target: Histone-lysine N-methyltransferase EZH2 (Mus musculus) (UniProt Q61188); assay: Inhibition of EZH2 in mouse B16-F1 migrating cells assessed as fold change in H3K27me3-buffered regulated Slc24a4-mRNA expression at 3 uM measured by ChIP-seq analysis relative to control cells
[18] = target: Histone-lysine N-methyltransferase EZH2 (Mus musculus) (UniProt Q61188); assay: Inhibition of EZH2 in mouse B16-F1 migrating cells assessed as fold change in H3K27me3-buffered regulated 9930012K11Rik-mRNA expression at 3 uM measured by ChIP-seq analysis relative to control cells
[19] = target: Histone-lysine N-methyltransferase EZH2 (Mus musculus) (UniProt Q61188); assay: Inhibition of EZH2 in mouse B16-F1 migrating cells assessed as fold change in H3K27me3-buffered regulated Spry1-mRNA expression at 3 uM measured by ChIP-seq analysis relative to control cells
[20] = target: Histone-lysine N-methyltransferase EZH2 (Mus musculus) (UniProt Q61188); assay: Inhibition of EZH2 in mouse B16-F1 migrating cells assessed as fold change in H3K27me3-independent regulated Zswim4-mRNA expression at 3 uM measured by ChIP-seq analysis relative to control cells
[21] = target: Histone-lysine N-methyltransferase EZH2 (Mus musculus) (UniProt Q61188); assay: Inhibition of EZH2 in mouse B16-F1 migrating cells assessed as fold change in H3K27me3-buffered regulated Cdk6-mRNA expression at 3 uM measured by ChIP-seq analysis relative to control cells
[22] = target: Histone-lysine N-methyltransferase EZH2 (Mus musculus) (UniProt Q61188); assay: Inhibition of EZH2 in mouse B16-F1 migrating cells assessed as fold change in H3K27me3-buffered regulated Skp2-mRNA expression at 3 uM measured by ChIP-seq analysis relative to control cells
[23] = target: Histone-lysine N-methyltransferase EZH2 (Mus musculus) (UniProt Q61188); assay: Inhibition of EZH2 in mouse B16-F1 migrating cells assessed as fold change in H3K27me3-buffered regulated Zfp963-mRNA expression at 3 uM measured by ChIP-seq analysis relative to control cells
[24] = target: Histone-lysine N-methyltransferase EZH2 (Mus musculus) (UniProt Q61188); assay: Inhibition of EZH2 in mouse B16-F1 migrating cells assessed as fold change in H3K27me3-buffered regulated Kansl1l-mRNA expression at 3 uM measured by ChIP-seq analysis relative to control cells
[25] = target: Histone-lysine N-methyltransferase EZH2 (Mus musculus) (UniProt Q61188); assay: Inhibition of EZH2 in mouse B16-F1 migrating cells assessed as fold change in H3K27me3-buffered regulated Krit1-mRNA expression at 3 uM measured by ChIP-seq analysis relative to control cells
[26] = target: Histone-lysine N-methyltransferase EZH2 (Mus musculus) (UniProt Q61188); assay: Inhibition of EZH2 in mouse B16-F1 migrating cells assessed as fold change in H3K27me3-buffered regulated Arhgef39-mRNA expression at 3 uM measured by ChIP-seq analysis relative to control cells
[27] = target: Histone-lysine N-methyltransferase EZH2 (Mus musculus) (UniProt Q61188); assay: Inhibition of EZH2 in mouse B16-F1 migrating cells assessed as fold change in H3K27me3-buffered regulated Erbb3-mRNA expression at 3 uM measured by ChIP-seq analysis relative to control cells
[28] = target: Histone-lysine N-methyltransferase EZH2 (Mus musculus) (UniProt Q61188); assay: Inhibition of EZH2 in mouse B16-F1 migrating cells assessed as fold change in H3K27me3-buffered regulated Edaradd-mRNA expression at 3 uM measured by ChIP-seq analysis relative to control cells
[29] = target: Histone-lysine N-methyltransferase EZH2 (Mus musculus) (UniProt Q61188); assay: Inhibition of EZH2 in mouse B16-F1 migrating cells assessed as fold change in H3K27me3-buffered regulated Dlk2-mRNA expression at 3 uM measured by ChIP-seq analysis relative to control cells
[30] = target: Histone-lysine N-methyltransferase EZH2 (Mus musculus) (UniProt Q61188); assay: Inhibition of EZH2 in mouse B16-F1 migrating cells assessed as fold change in H3K27me3-buffered regulated Tuba1a-mRNA expression at 3 uM measured by ChIP-seq analysis relative to control cells

## OC[C@H]1O[C@@H](n2cnc3cc(Cl)c(Cl)cc32)[C@H](O)[C@@H]1O
[1]
  log2FC: 0.56
[2]
  log2FC: 0.54
[3]
  log2FC: -0.8
[4]
  log2FC: -0.64
[5]
  log2FC: -0.51
[6]
  log2FC: -0.74
[7]
  log2FC: 0.61
[8]
  log2FC: 0.53
[9]
  log2FC: -0.66
[10]
  log2FC: -0.66
[11]
  log2FC: -0.56
[12]
  log2FC: -0.94
[13]
  log2FC: -0.59
[14]
  log2FC: 0.6
[15]
  log2FC: -1.36
[16]
  log2FC: -0.49

## CCCc1cc(C)[nH]c(=O)c1CNC(=O)c1cc(-c2ccnc(N3CCN(C)CC3)c2)cc2c1cnn2C(C)C
[17]
  log2FC: 0.56
[18]
  log2FC: -0.59
[19]
  log2FC: -0.41
[20]
  log2FC: 0.45
[21]
  log2FC: -0.4
[22]
  log2FC: -0.41
[23]
  log2FC: 0.74
[24]
  log2FC: -0.4
[25]
  log2FC: -0.43
[26]
  log2FC: -0.51
[27]
  log2FC: -0.44
[28]
  log2FC: -0.63
[29]
  log2FC: -0.86
[30]
  log2FC: 0.46
